These are yes or no findings as the source states them, for the method shown. Some entries that bind do so weakly or less than the wild type. Tags and fused reporters may be left off the sequences shown.
Biological target: GST-TAX1BP1 (human) (UniProt Q86VP1)
Assay: pull-down; microscopy-based protein-protein interaction assay: GST-tagged bait saturated on Glutathione Sepharose 4B beads, fluorescent prey at 2 µM, 25 mM HEPES pH 7.5, 150 mM NaCl, 1 mM DTT, 30 min-1 h at room temperature, beads imaged at the equilibrium by confocal microscopy; both purified

The chains behind the UniProt entries cited, without tags or fusion partners.
UniProt Q86VP1: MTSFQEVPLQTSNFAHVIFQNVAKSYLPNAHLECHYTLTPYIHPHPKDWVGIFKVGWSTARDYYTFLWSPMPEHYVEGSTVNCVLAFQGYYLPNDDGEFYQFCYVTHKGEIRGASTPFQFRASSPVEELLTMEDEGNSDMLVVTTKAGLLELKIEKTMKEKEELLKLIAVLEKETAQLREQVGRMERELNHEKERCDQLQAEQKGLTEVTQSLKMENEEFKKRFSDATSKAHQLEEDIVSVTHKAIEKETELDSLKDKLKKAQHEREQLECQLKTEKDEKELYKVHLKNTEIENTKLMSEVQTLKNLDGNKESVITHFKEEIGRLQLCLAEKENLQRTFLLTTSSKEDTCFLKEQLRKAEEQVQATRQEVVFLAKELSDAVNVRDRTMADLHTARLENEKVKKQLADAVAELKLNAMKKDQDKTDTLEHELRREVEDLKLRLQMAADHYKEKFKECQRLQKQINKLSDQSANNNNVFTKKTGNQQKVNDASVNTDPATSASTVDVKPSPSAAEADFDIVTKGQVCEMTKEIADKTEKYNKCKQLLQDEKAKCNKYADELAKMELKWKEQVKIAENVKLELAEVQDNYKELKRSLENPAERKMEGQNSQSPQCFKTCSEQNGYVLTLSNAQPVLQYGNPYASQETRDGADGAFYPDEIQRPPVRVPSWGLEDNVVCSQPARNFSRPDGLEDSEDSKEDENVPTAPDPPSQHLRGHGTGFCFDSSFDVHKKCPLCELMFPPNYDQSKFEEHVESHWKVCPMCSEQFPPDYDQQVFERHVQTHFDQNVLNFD

B1: GFP-NBR1 fragment spanning the CC1 and FW domains (aa 257-498) (domain or fragment, UniProt Q14596 257-498)
chain: LKLRRPVVGSSEPFCHSKYSTPRLPAALEQVRLQKQVDKNFLKAEKQRLRAEKKQRKAEVKELKKQLKLHRKIHLWNSIHGLQSPKSPLGRPESLLQSNTLMLPLQPCTSVMPMLSAAFVDENLPDGTHLQPGTKFIKHWRMKNTGNVKWSADTKLKFMWGNLTLASTEKKDVLVPCLKAGHVGVVSVEFIAPALEGTYTSHWRLSHKGQQFGPRVWCSIIVDPFPSEESPDNIEKGMISSS
binding: binds

Reference: article PMC8410870
